Experimental data taken from publication PMC7462607 (eLife, 2020).
Strings that start with PEPTIDE1 are HELM notation: dots part the residues, brackets hold end groups and non-standard residues.

Experiment: peptide made by a vendor
Details: whole synthesis

Substance: PEPTIDE1{I.L.P.K.V.L.H.K.R.T.L.G.L.S}$$$$V2.0
- purity (crude or final not stated): 96%
